Experimental data from PubChem BioAssay AID485314 (National Center for Advancing Translational Sciences (NCATS), 2010).
Screen size: about 340,000 compounds; about 4,500 (1.3%) were called active. This list was built around the results that the source calls inconclusive (neither active nor inactive); the mix of calls is not that of the screen. The call rests on the fitted dose curve; in most records, active means well fitted inhibition curve with a large enough effect; inconclusive means small, poorly fitted or top-dose-only effect, or another doubt; inactive means no such curve, though single readings can be large or run the other way. Potencies of inconclusive entries are doubtful fits and often do not repeat.

target: DNA polymerase beta (Homo sapiens) (UniProt P06746); test: qHTS Assay for Inhibitors of DNA Polymerase Beta; settings: Pol beta primer extension/strand displacement, fluorescence kinetic; activity change, negative = inhibition: at 114 µM (top of the series)
Summary of the method: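 Values derive from four-parameter Hill fits of normalized kinetic data: reads at 0 and 10 min following addition of 50 nM substrate to 10 nM Pol beta preincubated 15 min with compound.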
On the % scale 0 is the no-effect control and ±100 the full control effect; potency means the concentration at half of the fitted maximal effect.

| SMILES | Potency | activity change, negative = inhibition |
| --- | --- | --- |
| Cc1ccc(Nc2nc(-c3ccc(C)cc3)c(CC(=O)O)s2)cc1 | inactive |  |
| CCNC(=O)c1c(NC(=O)Cc2coc3ccc(CC)cc23)sc2c1CCCC2 | inactive |  |
| O=c1cc(-c2ccncc2)oc2c1ccc1ccccc12 | inconclusive: 79.4 µM [inhibitor, partial curve] |  |
| CC(C)(C)C(=O)OCc1nc(-c2ccc(O)c(O)c2)cs1 |  | inconclusive: -109% [inhibitor] |
| CCN(Cc1ccccc1)C(=O)c1cc(-c2ccccc2)n[nH]1 | inactive |  |
| CCOc1ccccc1NC(=O)CCCc1nc(-c2ccccc2Cl)no1 | inactive |  |
| CCOc1ccc(C(=O)Nc2cc(NC(=O)c3ccc(OCC)c(Cl)c3)cc(C(=O)O)c2)cc1Cl | active: 17.8 µM |  |
| Cc1ccc(Cn2c(C)nc3c(c2=O)c2nc4ccccc4nc2n3Cc2ccco2)cc1 | active: 10 µM |  |
| O=C(O)CCN1C(=O)/C(=C\c2cccc(OCC(=O)Nc3ccc(Cl)cc3)c2)SC1=S | active: 56.2 µM |  |
| CCCSc1nc(O)c(C(c2ccc(OC)c(O)c2)c2c(O)nc(SCCC)n(C)c2=O)c(=O)n1C | inconclusive: 44.7 µM [inhibitor, partial curve, poor fit] |  |
| NS(=O)(=O)c1ccc(N=Nc2c(O)ccc3ccccc23)cc1 | inactive |  |
| Cc1cccc(C(=O)NCC(=O)N2CC(=O)Nc3ccccc32)c1 | inconclusive: 89.1 µM [inhibitor, single point] |  |
| CC(C)CN1CCc2nc(Nc3ccc(F)cc3F)ncc2C1 | inconclusive: 89.1 µM [inhibitor, single point] |  |
| COC(=O)CSc1nnc(NC(=O)c2ccc3c(c2)OCO3)s1 | inconclusive: 79.4 µM [inhibitor, single point] |  |
| COc1cc(/C=C(\C#N)c2nc3ccccc3[nH]2)ccc1OCc1ccccc1F |  | inconclusive: -89.8% [inhibitor] |
| Cc1ccc(C(=O)c2oc3ccc(Cl)cc3c2NC(=O)CN2CCN(C)CC2)cc1 | inconclusive: 89.1 µM [inhibitor, single point] |  |
| O=C(CCN1C(=O)S/C(=C\c2cccs2)C1=O)Nc1nccs1 | inactive |  |
| COc1ccc(NC(=O)C(C)NS(=O)(=O)c2ccccc2)cc1Cl (stereo unspecified) | inconclusive: 79.4 µM [inhibitor, single point] |  |
| O=C(Cc1coc2cc3c(cc12)CCC3)OCc1cc(=O)n2c(n1)sc1ccccc12 | active: 10 µM |  |
| Cc1c(Cl)cnc(NC(=O)COC(=O)c2nn(C)c(=O)c3ccccc23)c1Cl | inconclusive: 39.8 µM [inhibitor, partial curve] |  |
| Cc1cccc(NC(=O)CC2SC(=O)N(c3ccccc3)C2=O)c1 (stereo unspecified) | inactive |  |
| O=C(O)CCCN1C(=O)/C(=C\c2ccco2)SC1=S | active: 20 µM |  |
| CCc1ccc(OCC(=O)c2c(O)c3ccccc3oc2=O)cc1 | inactive |  |

| SMILES | Potency | activity change, negative = inhibition |
| --- | --- | --- |
| Cc1oc2ccc(NS(=O)(=O)c3ccc(C(C)(C)C)cc3)cc2c1C(=O)Nc1ccccc1 | inconclusive: 10 µM [inhibitor, partial curve] |  |
| Cc1ccc(C(=O)N2CCCCC2)cc1NC(=O)c1nsc2ccccc12 | inconclusive: 50.1 µM [inhibitor, partial curve] |  |
| O=C1CN(C(=O)COC(=O)C23CC4CC(CC(O)(C4)C2)C3)c2ccccc2N1 | inactive |  |
| CS(=O)(=O)c1ccc(C(=O)OCC(=O)NC(=O)C2CCCCC2)cc1[N+](=O)[O-] | inconclusive: 20 µM [inhibitor, single point] |  |
| O=C(CSc1ccsc1[N+](=O)[O-])NC1CCCC1 | inconclusive: 22.4 µM [inhibitor, full curve] |  |
| O=C(N/N=C/c1ccc([N+](=O)[O-])s1)C(O)c1ccccc1 (stereo unspecified) | inconclusive: 70.8 µM [inhibitor, single point] |  |
| CCN(CC)CCCNC(=O)C(C)n1c2ccccc2c2nc(=O)cc(C)n21 (stereo unspecified) | inconclusive: 8.91 µM [inhibitor, partial curve] |  |
| O=C(NC1CC(=O)N(c2ccccc2)C1)C(c1ccccc1)c1ccccc1 (stereo unspecified) | inconclusive: 89.1 µM [inhibitor, single point] |  |
| C=CCn1c(NC(=O)c2ccc(Br)o2)c(C(=O)OCC)sc1=S | inconclusive: 39.8 µM [inhibitor, single point] |  |
| NC1=NC(=O)S/C1=C\c1ccc(F)cc1 | inconclusive: 25.1 µM [inhibitor, partial curve] |  |
| Cc1ccc(N/C(C(Cl)=C(Cl)Cl)=C(/Cl)[N+](=O)[O-])c(C)c1 | inactive |  |
| Cc1ccc(/C=c2\sc3nc(-c4cccnc4)nn3c2=O)cc1 | inconclusive: 79.4 µM [inhibitor, partial curve] |  |
| O=C(CN1CCN(S(=O)(=O)c2ccc(Cl)cc2)CC1)c1ccc(O)c(O)c1 | inconclusive: 4.47 µM [inhibitor, single point] |  |
| Cc1ccc(CN2CCN(Cc3ccccn3)CC2CCO)cc1 (stereo unspecified) | inconclusive: 89.1 µM [inhibitor, single point] |  |
| C=CCn1c(SCC(=O)c2ccccc2)nnc1-c1ccc2c(c1)OCO2 | active: 50.1 µM |  |
| Cc1nn(-c2cc(N3CCCCC3)ccc2N)c(=O)c2ccccc12 | inconclusive: 100 µM [inhibitor, single point] |  |
| Cc1cc(C)c(NC(=O)C2CC(=O)N(C(C)C)C2)c(C)c1 (stereo unspecified) | inconclusive: 22.4 µM [inhibitor, single point] |  |
| O=C(N/N=C/c1ccccc1O)NC12CC3CC(CC(C3)C1)C2 | inactive |  |
| COc1ccc(NC(=O)c2cc3ccccc3cc2OC)cc1 | inactive |  |
| CC1CCC2C(=O)N(c3ccc(S(=O)(=O)c4ccccc4)cc3)C(=O)C2C1 (stereo unspecified) | inconclusive: 79.4 µM [inhibitor, single point] |  |
| CCOC(=O)C1CCCN(S(=O)(=O)c2ccc3[nH]c(=O)ccc3c2)C1 (stereo unspecified) | inactive |  |
| COc1cc(/C=C(\C#N)c2[nH]nc(N)c2C#N)cc(OC)c1O | inconclusive: 12.6 µM [inhibitor, full curve, poor fit] |  |
| CC(=O)c1ccc(N2CCN(C(=O)NCc3noc4ccc(C)cc34)CC2)cc1 | inconclusive: 89.1 µM [inhibitor, single point] |  |

For reference, two of the compounds above.

| SMILES | Potency | activity change, negative = inhibition |
| --- | --- | --- |
| Cc1ccc(C(=O)N2CCCCC2)cc1NC(=O)c1nsc2ccccc12 | inconclusive: 50.1 µM [inhibitor, partial curve] |  |
| O=C1CN(C(=O)COC(=O)C23CC4CC(CC(O)(C4)C2)C3)c2ccccc2N1 | inactive |  |
